± gives the uncertainty stated by the source. The uncertainty is large for many entries.

The nature of the series: self-splicing fitness, log relative to wild type (ln ratio); higher = more splicing; Tetrahymena group I intron in knt gene, E. coli kanamycin selection, DiMSum; sequences stand for … in CUCUCU…GGAGGGAAAAGUUAUCAGGCAUGCACCUGGUAGCUAGUCUUUAAACCAAUAGAUUGCAUCGGUUUAAAAGGCAAGACCGUCAAAUUGCGGGAAAGGGGUCAACAGCCGUUCAGUACCAAGUCUCAGGGGAAACUUUGAGAUGGCCUUGCAAAGGGUAUGGUAAUAAGCUGACGGACAUGGUCCUAACCACGCAGCCAAGUCCUAAGUCAACAGAUCUUCUGUUGAUAUGGAUGCAGUUCACAGACUAAAUGUCGGUCGGGGAAGAUGUAUUCUUCUCAUAAGAUAUAGUCGGACCUCUCCUUAAUGGGAGCUAGCGGAUGAAGUGAUGCAACACUGGAGCCGCUGGGAACUAAUUUGUAUGCGAAAGUAUAUUGAUUAGUUUUGGAGUACUCGUGGUCG
In outline:
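Pooled colonies went to amplicon sequencing on an Illumina HiSeq 2500 after six replicate transformations. The plates were LB agar with 100 μg/mL carbenicillin, 50 μM IPTG and 0.2% rhamnose, with or without 25 μg/mL kanamycin, incubated overnight at 37°C or 30°C. The E. coli BL21(DE3) library had all eight P1ex-region intron nucleotides randomised, the intron placed in the knt kanamycin-resistance gene on pET-22b(+). DiMSum fitness is the error-weighted combination of replicate fold changes, kanamycin against none, normalised to wild type.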

Regarding UAACAGCAAUAUUACGCGUG, the “self-splicing fitness (ln)” value is -0.718 ± 0.041 (30 °C) and 0.173 ± 0.055 (37 °C).

Consider UCGUAGCAAUAUUACGACUC, for which the “self-splicing fitness (ln)” value (30 °C) is -3.2 ± 0.54. For UCGGAGCAAUAUUACGCGGC, the “self-splicing fitness (ln)” value (37 °C) is -0.995 ± 0.53.

With UCAUAGCAAUAUUACGAAUC, the “self-splicing fitness (ln)” value (30 °C) was -4.93 ± 0.72. As to CUCGAGCAAUAUUACGCACU, the “self-splicing fitness (ln)” value (37 °C) was -2.72 ± 0.53. On to CGUGAGCAAUAUUACGAUAC, for which the “self-splicing fitness (ln)” value (37 °C) was -0.778 ± 1.4. For the sequence UUACAGCAAUAUUACGCUGC, the “self-splicing fitness (ln)” value (37 °C) was -2.19 ± 0.79. On to CCGUAGCAAUAUUACGGGAC, for which the “self-splicing fitness (ln)” value is, setting by setting: (30 °C) -4.49 ± 1; (37 °C) -3.91 ± 0.52. Turning to GAUUAGCAAUAUUACGUAGC, the “self-splicing fitness (ln)” value reads like this: (30 °C) -1.74 ± 0.14; (37 °C) -1.33 ± 0.18. On to CCAUAGCAAUAUUACGUCAC, for which the “self-splicing fitness (ln)” value (37 °C) is -1.39 ± 1.2.

Take UUUUAGCAAUAUUACGAGCC: the “self-splicing fitness (ln)” value (37 °C) was -1.35 ± 0.5.

Consider AGUUAGCAAUAUUACGCCGC, for which the “self-splicing fitness (ln)” value (37 °C) was -0.457 ± 0.68.

In the case of UACUAGCAAUAUUACGAAAU, the “self-splicing fitness (ln)” value (30 °C) was -4.31 ± 0.51. With GGAUAGCAAUAUUACGCCUC, the “self-splicing fitness (ln)” value (37 °C) was -1.62 ± 0.59.

GCCGAGCAAUAUUACGCUCC: for the setting “37 °C”, the “self-splicing fitness (ln)” value was -0.147 ± 0.68.

In the case of CUUUAGCAAUAUUACGCUCA, the “self-splicing fitness (ln)” value was -2.02 ± 0.52 (30 °C) and -1.47 ± 0.87 (37 °C). For CCCCAGCAAUAUUACGUACC, the “self-splicing fitness (ln)” value (30 °C) is -4.07 ± 0.18 and the “self-splicing fitness (ln)” value (37 °C) is -3.36 ± 0.35. For the sequence UAGAAGCAAUAUUACGAAGC, the “self-splicing fitness (ln)” value (30 °C) was -4.07 ± 0.73. As to UUUUAGCAAUAUUACGUUGC, the “self-splicing fitness (ln)” value (37 °C) was -2.36 ± 0.63. With CUUGAGCAAUAUUACGGCAA, the “self-splicing fitness (ln)” value is, setting by setting: (30 °C) -1.93 ± 0.82; (37 °C) -1.78 ± 0.66. Turning to GCGAAGCAAUAUUACGCCAA, the “self-splicing fitness (ln)” value (37 °C) was -1.82 ± 0.39. Take GUUCAGCAAUAUUACGACCC: the “self-splicing fitness (ln)” value is -0.153 ± 0.53 (30 °C) and -0.669 ± 0.65 (37 °C).

Consider CUUAAGCAAUAUUACGGCUC, for which the “self-splicing fitness (ln)” value was -3.77 ± 0.75 (30 °C) and -1.71 ± 0.67 (37 °C).

With UUUGAGCAAUAUUACGGGGC, the “self-splicing fitness (ln)” value (30 °C) is -2.5 ± 0.65. For UACCAGCAAUAUUACGUAGU, the “self-splicing fitness (ln)” value was -2.96 ± 0.099 (30 °C) and -1.65 ± 0.1 (37 °C). GAAGAGCAAUAUUACGCUAC: the “self-splicing fitness (ln)” value (37 °C) is -4.09 ± 1. Regarding CCUAAGCAAUAUUACGACGC, the “self-splicing fitness (ln)” value (30 °C) was -2.7 ± 0.61.

Take CGAAAGCAAUAUUACGAUAU: the “self-splicing fitness (ln)” value is -3.42 ± 0.28 (30 °C) and -1.27 ± 0.2 (37 °C). For GGGGAGCAAUAUUACGAAUG, the “self-splicing fitness (ln)” value is -4.04 ± 1 (30 °C) and -2.52 ± 0.77 (37 °C). On to CUCUAGCAAUAUUACGAAUA, for which, where the note is “37 °C”, the “self-splicing fitness (ln)” value is -2.47 ± 1.1. Still for that read-out and setting: the same measure for CCAUAGCAAUAUUACGCGAA: -1.85 ± 0.52. Regarding GUGGAGCAAUAUUACGCAGC, the “self-splicing fitness (ln)” value (30 °C) is -1.71 ± 0.53.

As to GACCAGCAAUAUUACGCUCU, the “self-splicing fitness (ln)” value by setting is: (30 °C) -0.6 ± 0.061; (37 °C) 0.0283 ± 0.089.

Turning to GGCGAGCAAUAUUACGGAGC, for the setting “30 °C”, the “self-splicing fitness (ln)” value is -2.39 ± 0.64.

In the case of AAGUAGCAAUAUUACGAAGC, the “self-splicing fitness (ln)” value was -1.04 ± 0.67 (30 °C) and -2.66 ± 0.75 (37 °C).

UUUAAGCAAUAUUACGAUCC: the “self-splicing fitness (ln)” value is, setting by setting: (30 °C) -3.57 ± 1; (37 °C) -1.14 ± 0.64. As for UCUAAGCAAUAUUACGAAAC, the “self-splicing fitness (ln)” value (30 °C) is -2.95 ± 0.53.

Regarding UGUUAGCAAUAUUACGGGAC, the “self-splicing fitness (ln)” value (30 °C) was -3.34 ± 1.1. Turning to CAGGAGCAAUAUUACGCUCA, the “self-splicing fitness (ln)” value runs as follows: (30 °C) -4.11 ± 0.73; (37 °C) -2.05 ± 0.51.

For the sequence CCAGAGCAAUAUUACGUGAA, the “self-splicing fitness (ln)” value (30 °C) was -3.7 ± 0.16 and the “self-splicing fitness (ln)” value (37 °C) is -2.32 ± 0.18.

For ACAGAGCAAUAUUACGGAUA, the “self-splicing fitness (ln)” value (37 °C) is -3.19 ± 0.6. For the sequence UCUGAGCAAUAUUACGUCUC, the “self-splicing fitness (ln)” value by setting is: (30 °C) -2.33 ± 0.66; (37 °C) -1.15 ± 0.55. On to UAUCAGCAAUAUUACGAAAC, for which, under “30 °C”, the “self-splicing fitness (ln)” value was -2.93 ± 1.1. Take CGAAAGCAAUAUUACGAAAU: the “self-splicing fitness (ln)” value is -2.32 ± 0.19 (30 °C) and -2.96 ± 0.24 (37 °C). With CGGUAGCAAUAUUACGCUCG, where the note is “30 °C”, the “self-splicing fitness (ln)” value is -2.26 ± 0.9. Consider CGCCAGCAAUAUUACGGACC, for which the “self-splicing fitness (ln)” value by setting is: (30 °C) -1.3 ± 0.15; (37 °C) -0.361 ± 0.18. Consider CGUCAGCAAUAUUACGAGAC, for which the “self-splicing fitness (ln)” value is -2.95 ± 0.38 (30 °C) and -1.9 ± 0.32 (37 °C).

Source of the values: the supplement of paper PMC7877785.
